The source gives many values for each of these; only a part stands here.
Tested on: cancer cell lines from the cancer cell line encyclopedia (CCLE)
Experiment: Cell line profiling (CLiP) proliferation experiment
Assay type: cell-based
Parameters: ACTIVITY_AREA: scale not given here; AMAX: unit not given here
Protocol: Compound profiling experiment and data analysis was performed as previously described. Data was imported and plotted using the Tibco Spotfire DXP application. Lines were categorized as sensitive, intermediate and refractory as follows: Amax<-40 & Inflection Point <2 ~ Sensitive, Amax>-20 & Inflection Point >10 ~ Refractory, all else were called Intermediate. Cancer Cell line HG-U133 Plus 2 data was processed and normalized as described. […] Five sets of refractory cell lines were generated from the pool of refractory cell lines trying to match the lineage composition of the set of sensitive cell lines. The limma package was used as previously described to perform the statistical comparison.

Q: For `CC(C)[C@@]12C[C@@H](O)[C@@](C)(O1)[C@@H]1CC[C@@H](C)[C@H]1[C@@H]2OC(=O)/C=C/c1ccccc1` [Englerin B], which AMAX (KCL-22) is on record?
A: -86.03

Q: What about the RESPONSE (KCL-22) of the same compound?
A: INTERMEDIATE

Q: And the ACTIVITY_AREA (KCL-22 cells)?
A: 43.03

Q: What about the AMAX (KCL-22 cells) of the same compound?
A: -86.03

Q: What about the RESPONSE (KCL-22 cells) of the same compound?
A: INTERMEDIATE

Q: What about the ACTIVITY_AREA (KELLY) of the same compound?
A: 53.88

Q: And the AMAX (KELLY)?
A: -99.41

Q: What about the RESPONSE (KELLY) of the same compound?
A: INTERMEDIATE

Q: What about the ACTIVITY_AREA (KHM-1B) of the same compound?
A: 22.65

Q: And the AMAX (KHM-1B)?
A: -74.36

Q: What about the RESPONSE (KHM-1B) of the same compound?
A: INTERMEDIATE

Q: And the ACTIVITY_AREA (KHM-1B cells)?
A: 22.65

Q: What about the AMAX (KHM-1B cells) of the same compound?
A: -74.36

Q: What about the RESPONSE (KHM-1B cells) of the same compound?
A: INTERMEDIATE

Q: What about the ACTIVITY_AREA (KLE) of the same compound?
A: 36.8

Q: And the AMAX (KLE)?
A: -42.78

Q: What about the RESPONSE (KLE) of the same compound?
A: INTERMEDIATE

Q: And the ACTIVITY_AREA (KM12)?
A: 27.86

Q: And the AMAX (KM12)?
A: -33.54

Q: And the RESPONSE (KM12)?
A: INTERMEDIATE

Q: What about the ACTIVITY_AREA (KM12 cells) of the same compound?
A: 27.86

Q: And the AMAX (KM12 cells)?
A: -33.54

Q: And the RESPONSE (KM12 cells)?
A: INTERMEDIATE

Q: And the ACTIVITY_AREA (KMM-1)?
A: 70.57

Q: And the AMAX (KMM-1)?
A: -76.76

Q: What about the RESPONSE (KMM-1) of the same compound?
A: INTERMEDIATE

Q: What about the ACTIVITY_AREA (KMM-1 cells) of the same compound?
A: 70.57

Q: What about the AMAX (KMM-1 cells) of the same compound?
A: -76.76

Q: What about the RESPONSE (KMM-1 cells) of the same compound?
A: INTERMEDIATE

Q: What about the ACTIVITY_AREA (KMRC-1) of the same compound?
A: 11.39

Q: And the AMAX (KMRC-1)?
A: -23.55

Q: What about the RESPONSE (KMRC-1) of the same compound?
A: INTERMEDIATE

Q: And the ACTIVITY_AREA (KMRC-1 cells)?
A: 11.39

Q: And the AMAX (KMRC-1 cells)?
A: -23.55

Q: And the RESPONSE (KMRC-1 cells)?
A: INTERMEDIATE

Q: And the ACTIVITY_AREA (KMRC-2)?
A: 12.6

Q: And the AMAX (KMRC-2)?
A: 11.12

Q: What about the RESPONSE (KMRC-2) of the same compound?
A: REFRACTORY

Q: What about the ACTIVITY_AREA (KMRC-2 cells) of the same compound?
A: 12.6

Q: What about the AMAX (KMRC-2 cells) of the same compound?
A: 11.12

Q: And the RESPONSE (KMRC-2 cells)?
A: REFRACTORY

Q: What about the ACTIVITY_AREA (KMRC-20) of the same compound?
A: 20.95

Q: What about the AMAX (KMRC-20) of the same compound?
A: -16.57

Q: And the RESPONSE (KMRC-20)?
A: INTERMEDIATE

Q: And the ACTIVITY_AREA (KMRC-20 cells)?
A: 20.95

Q: And the AMAX (KMRC-20 cells)?
A: -16.57

Q: And the RESPONSE (KMRC-20 cells)?
A: INTERMEDIATE

Q: And the ACTIVITY_AREA (KMS-11)?
A: 56.95

Q: What about the AMAX (KMS-11) of the same compound?
A: -88.04

Q: And the RESPONSE (KMS-11)?
A: INTERMEDIATE

Q: What about the ACTIVITY_AREA (KMS-11 cells) of the same compound?
A: 56.95

Q: What about the AMAX (KMS-11 cells) of the same compound?
A: -88.04

Q: And the RESPONSE (KMS-11 cells)?
A: INTERMEDIATE

Q: What about the ACTIVITY_AREA (KMS-12-BM) of the same compound?
A: 24.11

Q: What about the AMAX (KMS-12-BM) of the same compound?
A: -61.82

Q: And the RESPONSE (KMS-12-BM)?
A: INTERMEDIATE

Q: What about the ACTIVITY_AREA (KMS-12-BM cells) of the same compound?
A: 24.11

Q: And the AMAX (KMS-12-BM cells)?
A: -61.82

Q: And the RESPONSE (KMS-12-BM cells)?
A: INTERMEDIATE

Q: What about the ACTIVITY_AREA (KMS-26) of the same compound?
A: 41.57

Q: And the AMAX (KMS-26)?
A: -70.18

Q: What about the RESPONSE (KMS-26) of the same compound?
A: INTERMEDIATE

Q: What about the ACTIVITY_AREA (KMS-26 cells) of the same compound?
A: 41.57

Q: What about the AMAX (KMS-26 cells) of the same compound?
A: -70.18

Q: What about the RESPONSE (KMS-26 cells) of the same compound?
A: INTERMEDIATE

Q: And the ACTIVITY_AREA (KMS-27)?
A: 14.64

Q: And the AMAX (KMS-27)?
A: -52.87

Q: And the RESPONSE (KMS-27)?
A: INTERMEDIATE

Q: What about the ACTIVITY_AREA (KMS-27 cells) of the same compound?
A: 14.64

Q: What about the AMAX (KMS-27 cells) of the same compound?
A: -52.87

Q: What about the RESPONSE (KMS-27 cells) of the same compound?
A: INTERMEDIATE

Q: And the ACTIVITY_AREA (KMS-28BM)?
A: 29.69

Q: What about the AMAX (KMS-28BM) of the same compound?
A: -50.99

Q: What about the RESPONSE (KMS-28BM) of the same compound?
A: INTERMEDIATE

Q: What about the ACTIVITY_AREA (KMS-34) of the same compound?
A: 20.59

Q: What about the AMAX (KMS-34) of the same compound?
A: -54.42

Q: And the RESPONSE (KMS-34)?
A: INTERMEDIATE

Q: And the ACTIVITY_AREA (KMS-34 cells)?
A: 20.59

Q: And the AMAX (KMS-34 cells)?
A: -54.42

Q: What about the RESPONSE (KMS-34 cells) of the same compound?
A: INTERMEDIATE

Q: What about the ACTIVITY_AREA (KNS-62) of the same compound?
A: 15.11

Q: What about the AMAX (KNS-62) of the same compound?
A: -29.24

Q: And the RESPONSE (KNS-62)?
A: INTERMEDIATE

Q: What about the ACTIVITY_AREA (KNS-62 cells) of the same compound?
A: 15.11

Q: What about the AMAX (KNS-62 cells) of the same compound?
A: -29.24

Q: And the RESPONSE (KNS-62 cells)?
A: INTERMEDIATE

Source: PMC4476799, “Englerin A Agonizes the TRPC4/C5 Cation Channels to Inhibit Tumor Cell Line Proliferation” (PLoS ONE, 2015)
